Record: PubChem BioAssay AID743121 (NCATS, 2013)

- Aim: 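Partners whose loss is lethal together with topoisomerase I blockade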 (primary screen)
- Cells: MDA-MB-231 cells, a human breast cancer line
- Reagents: single siRNA against human genes, 20 nM siRNA (0.8 pmol per well)
- Time to read-out: 120 h (drug added 48 h after transfection, read 72 h later)
- Treatment: camptothecin 20 nM (about EC30) for 72 h; vehicle 0.1% DMSO in parallel plates
- Measured: 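CellTiter-Glo ATP signal, scaled to control siRNA as percent viability; sensitisation given as log2 of untreated divided by camptothecin-treated viability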
- Direction: log2 vehicle/camptothecin viability: higher = stronger sensitisation to camptothecin; viability with camptothecin and viability without drug: higher = more viable cells
- Active means: 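Active genes have an RSA gene-level p-value below 0.001, computed from the ratios of their separate siRNAs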
This is one part, drawn at random, of about 26,000 reagents tested. Of all reagents, 167 (0.63%) were called active. 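Calls are per gene from RSA p-values that are not deposited; an individual active-marked siRNA can sensitise only weakly.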 Unmarked entries are inactive. Reagents against one gene are numbered here.

| target gene | reagent | log2 vehicle/camptothecin viability | viability with camptothecin (% of control) | viability without drug (% of control) |
| --- | --- | --- | --- | --- |
| NCSTN (nicastrin) | 1 | 0.0916 | 77 | 82 |
| NCSTN (nicastrin) | 2 | 0.0507 | 96.9 | 100 |
| NCSTN (nicastrin) | 3 | -0.229 | 26.8 | 22.9 |
| NCSTN (nicastrin) | 4 | -0.232 | 79.5 | 67.7 |
| PROCR (protein C receptor) | 1 | -0.658 | 94.4 | 59.8 |
| PROCR (protein C receptor) | 2 | -0.0419 | 73 | 70.9 |
| PROCR (protein C receptor) | 3 | 0.261 | 70.4 | 84.4 |
| PSEN2 (presenilin 2) | 1 | -0.125 | 110 | 101 |
| PSEN2 (presenilin 2) | 2 | -0.146 | 31.3 | 28.3 |
| PSEN2 (presenilin 2) | 3 | -0.105 | 49.1 | 45.6 |
| PSEN2 (presenilin 2) | 4 | -0.363 | 92.3 | 71.7 |
| SCAP (SREBF chaperone) | 1 | -0.406 | 75.1 | 56.7 |
| SCAP (SREBF chaperone) | 2 | 0.258 | 59.7 | 71.4 |
| SCAP (SREBF chaperone) | 3 | 0.425 | 63.2 | 84.9 |
| SCAP (SREBF chaperone) | 4 | -0.277 | 91.9 | 75.8 |
| TESMIN (testis expressed metallothionein like protein) | 1 | 0.23 | 60.7 | 71.2 |
| TESMIN (testis expressed metallothionein like protein) | 2 | 0.788 | 34.7 | 59.9 |
| TESMIN (testis expressed metallothionein like protein) | 3 | 0.158 | 89.5 | 99.9 |
| RHOA (ras homolog family member A) | 1 | -0.745 | 82.4 | 49.2 |
| RHOA (ras homolog family member A) | 2 | -0.266 | 32 | 26.6 |
| RHOA (ras homolog family member A) | 3 | -0.473 | 26.4 | 19 |
| IGF1 (insulin like growth factor 1) | 1 | -0.358 | 88 | 68.6 |
| IGF1 (insulin like growth factor 1) | 2 | -0.23 | 53.1 | 45.3 |
| IGF1 (insulin like growth factor 1) | 3 | -0.219 | 84.2 | 72.3 |
| IGF1 (insulin like growth factor 1) | 4 | -0.792 | 66.8 | 38.6 |

Already shown: an excerpt of the list.
| target gene | reagent | log2 vehicle/camptothecin viability | viability with camptothecin (% of control) | viability without drug (% of control) |
| --- | --- | --- | --- | --- |
| TESMIN (testis expressed metallothionein like protein) | 2 | 0.788 | 34.7 | 59.9 |
| TESMIN (testis expressed metallothionein like protein) | 3 | 0.158 | 89.5 | 99.9 |
| RHOA (ras homolog family member A) | 1 | -0.745 | 82.4 | 49.2 |

The list goes on:
| target gene | reagent | log2 vehicle/camptothecin viability | viability with camptothecin (% of control) | viability without drug (% of control) |
| --- | --- | --- | --- | --- |
| PHF20L1 (PHD finger protein 20 like 1) | 1 | -0.215 | 95 | 81.9 |
| PHF20L1 (PHD finger protein 20 like 1) | 2 | 0.515 | 45.2 | 64.6 |
| PHF20L1 (PHD finger protein 20 like 1) | 3 | -0.0924 | 97 | 91 |
| PHF20L1 (PHD finger protein 20 like 1) | 4 | -0.892 | 38.3 | 20.6 |
| SERPIND1 (serpin family D member 1) | 1 | 0.0317 | 70.9 | 72.5 |
| SERPIND1 (serpin family D member 1) | 2 | -0.276 | 51.9 | 42.9 |
| SERPIND1 (serpin family D member 1) | 3 | -0.643 | 53.3 | 34.1 |
| SERPIND1 (serpin family D member 1) | 4 | -0.233 | 79.6 | 67.7 |
| PGRMC1 (progesterone receptor membrane component 1) | 1 | 0.0117 | 95.5 | 96.3 |
| PGRMC1 (progesterone receptor membrane component 1) | 2 | 0.144 | 29.7 | 32.8 |
| PGRMC1 (progesterone receptor membrane component 1) | 3 | 0.276 | 78.2 | 94.7 |
| CHRM2 (cholinergic receptor muscarinic 2) | 1 | 0.311 | 21.3 | 26.4 |
| CHRM2 (cholinergic receptor muscarinic 2) | 2 | -0.218 | 85.8 | 73.7 |
| CHRM2 (cholinergic receptor muscarinic 2) | 3 | -0.649 | 46.6 | 29.7 |
| CHRM2 (cholinergic receptor muscarinic 2) | 4 | -0.326 | 46.5 | 37.1 |
| DTNA (dystrobrevin alpha) | 1 | -0.338 | 115 | 90.6 |
| DTNA (dystrobrevin alpha) | 2 | -0.41 | 93.9 | 70.7 |
| DTNA (dystrobrevin alpha) | 3 | -0.177 | 71.2 | 63 |
| DTNA (dystrobrevin alpha) | 4 | 0.52 | 23.1 | 33.1 |
| DTNA (dystrobrevin alpha) | 5 | -0.00475 | 80.8 | 80.5 |
| DTNA (dystrobrevin alpha) | 6 | -0.197 | 72.5 | 63.2 |
| DTNA (dystrobrevin alpha) | 7 | -0.506 | 75.1 | 52.8 |
| DTNA (dystrobrevin alpha) | 8 | -0.2 | 52.8 | 46 |
